In paper PMC10081989:
No constants are given. Whether binding was seen depends on the method and setting. In cells and extracts the contact can be indirect. Some binding calls cover weakened binding; strength is not graded here.

The chains behind the UniProt entries cited, without tags or fusion partners.
UniProt Q61188: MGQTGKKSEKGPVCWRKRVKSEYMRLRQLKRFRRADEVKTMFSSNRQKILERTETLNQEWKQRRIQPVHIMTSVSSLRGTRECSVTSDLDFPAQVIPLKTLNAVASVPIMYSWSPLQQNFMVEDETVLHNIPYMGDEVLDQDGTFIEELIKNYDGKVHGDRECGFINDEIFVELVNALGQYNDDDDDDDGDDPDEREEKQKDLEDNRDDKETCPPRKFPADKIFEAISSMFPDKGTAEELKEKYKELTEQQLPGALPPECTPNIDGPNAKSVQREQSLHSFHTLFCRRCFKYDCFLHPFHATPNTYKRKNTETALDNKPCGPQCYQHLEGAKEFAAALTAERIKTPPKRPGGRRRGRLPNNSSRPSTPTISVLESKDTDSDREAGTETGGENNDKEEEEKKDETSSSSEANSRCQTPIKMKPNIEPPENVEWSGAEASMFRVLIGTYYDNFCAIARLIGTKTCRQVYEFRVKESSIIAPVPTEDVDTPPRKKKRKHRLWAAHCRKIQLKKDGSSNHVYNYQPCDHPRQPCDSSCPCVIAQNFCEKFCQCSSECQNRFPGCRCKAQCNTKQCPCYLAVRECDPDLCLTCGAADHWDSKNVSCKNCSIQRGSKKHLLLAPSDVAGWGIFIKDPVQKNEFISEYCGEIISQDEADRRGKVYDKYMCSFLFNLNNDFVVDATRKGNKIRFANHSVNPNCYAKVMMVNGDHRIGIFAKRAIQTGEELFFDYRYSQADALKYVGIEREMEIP

Biological target: Enhancer of zeste homolog 2 (mouse, RAW264.7) (mouse (endogenous in RAW264.7)) (UniProt Q61188)
Experiment: co-IP; lysates of RAW264.7 cells cultured with 10% (vol/vol) medium of HK2 cells treated with 0.5 mM H2O2, immunoprecipitation with IgG or EZH2 antibody, then EZH2 and STAT6 immunoblotting

binding: binds
B1: Signal transducers and activators of transcription 6 (protein, UniProt P52633 1-837)
chain: MSLWGLISKMSPEKLQRLYVDFPQRLRHLLADWLESQPWEFLVGSDAFCYNMASALLSATVQRLQATAGEQGKGNSILPHISTLESIYQRDPLKLVATIRQILQGEKKAVIEEFRHLPGPFHRKQEELKFTTALGRLQHRVRETRLLRESLQQGAKTGQVSLQNLIDPPVNGPGPSEDLATMLQGTVGDLEATQALVLKRIQIWKRQQQLAGNGTPFEESLAGLQERCESLVEIYSQLQQEIGAASGELEPKTRASLISRLDEVLRTLVTSSFLVEKQPPQVLKTQTKFQAGVRFLLGLQFLGTSAKPPMVRADMVTEKQARELSLAQGPGTGVESTGEIMNNTVPLENSIPSNCCSALFKNLLLKKIKRCERKGTESVTEEKCAVLFSTSFTLGPNKLLIQLQALSLPLVVIVHGNQDNNAKATILWDNAFSEMDRVPFVVAERVPWEKMCETLNLKFMAEVGTSRGLLPEHFLFLAQKIFNDNSLSVEAFQHRCVSWSQFNKEILLGRGFTFWQWFDGVLDLTKRCLRSYWSDRLIIGFISKQYVTSLLLNEPDGTFLLRFSDSEIGGITIAHVIRGQDGSSQIENIQPFSAKDLSIRSLGDRIRDLAQLKNLYPKKPKDEAFRSHYKPEQMGKDGRGYVSTTIKMTVERDQPLPTPEPQMPAMVPPYDLGMAPDASMQLSSDMGYPPQSIHSFQSLEESMSVLPSFQEPHLQMPPNMSQITMPFDQPHPQGLLQCQSQEHAVSSPEPMLCSDVTMVEDSCLTQPVGGFPQGTWVSEDMYPPLMPPTEQDLTKLLLENQGEAGGSLGSQPLLQPSPYGQSGISLSHLDLRTNPSW
